# Measured values: PMC6387362
# By UniProt entry, the sequences of proteins in these tests, tags left out. Where a name states a change or a piece, a line headed by the entry shows the natural chain unless it says otherwise. Residues count along the entry.
# UniProt Q9WUD2, residues 337-761: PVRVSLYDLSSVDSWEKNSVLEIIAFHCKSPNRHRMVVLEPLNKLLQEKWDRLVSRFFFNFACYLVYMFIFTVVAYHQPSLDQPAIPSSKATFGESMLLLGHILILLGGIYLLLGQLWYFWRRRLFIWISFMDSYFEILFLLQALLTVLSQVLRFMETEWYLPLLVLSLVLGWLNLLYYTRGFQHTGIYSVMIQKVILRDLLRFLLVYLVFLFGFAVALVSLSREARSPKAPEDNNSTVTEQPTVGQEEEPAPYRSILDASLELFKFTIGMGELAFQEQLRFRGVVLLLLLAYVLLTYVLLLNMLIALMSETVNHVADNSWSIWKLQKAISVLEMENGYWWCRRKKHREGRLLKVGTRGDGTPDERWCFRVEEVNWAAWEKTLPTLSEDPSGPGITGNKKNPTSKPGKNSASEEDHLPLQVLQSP
# These are yes or no findings as the source states them, for the method shown. Binding seen in cells or lysates may run through a third protein. Some binding calls cover weakened binding; strength is not graded here. Sequences can lack the tags named with a protein.
# Biological target: T1, Snapin c-myc-tagged (UniProt O95295)
# T1 sequence: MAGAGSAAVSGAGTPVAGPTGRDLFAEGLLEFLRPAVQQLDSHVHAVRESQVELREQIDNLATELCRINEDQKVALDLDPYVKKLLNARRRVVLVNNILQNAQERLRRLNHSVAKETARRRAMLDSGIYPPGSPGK
# Experiment: co-IP; HEK293 cells transfected with ΔARD-TRPV2-GFP and c-myc-tagged Snapin or Synaptotagmin-IX; lysate (50 mM Tris-HCl pH 7.4, 150 mM NaCl, 2 mM EDTA, 1% Triton, 5% glycerol) incubated overnight at 4 °C with anti-MYC antibody, then sepharose beads; control without antibody; immunoblot
substance,measurement,value
ΔARD-TRPV2-GFP (Δ1-336 rat TRPV2) (from UniProt Q9WUD2 337-761) (domain or fragment),binding,binds
